Most values lie at the floor of the assay. Slopes are relative: functional sequences can read slightly below zero.

In the series the test system is Saccharomyces cerevisiae PS128 hsf1 delta, HSF1(1-493) fusion. The experiment in a line: growth estimate (transactivation domain function in HSF1 fusion, heat-shock survival) (a.u. (slope of normalised read count over time)); higher = stronger growth at 37°C, i.e. more transactivation activity. The following applies: library: random library.
On to DGSVPKSQ, for which the growth estimate was below -0.25. The figure for RASEA is below -0.25. As to RILYPRNKPLLHPVP, the growth estimate was below -0.25.

In the case of DRVGDVAKPAMSALALWILE, the growth estimate is below -0.25. Regarding VPFQRVSLVVPSAGRRAGVT, the growth estimate was below -0.25.

For the substance PRTRFS, the growth estimate is below -0.25.

In the case of RAFCAANMATAQLGSELRHS, the growth estimate is below -0.25.

As to SWGPADRRP, the growth estimate is below -0.25. For RRTIFGCG the value was 0.112; for VRSLVSVGVGTGTRLLMEPR, below -0.25; for VNRNEWLCEVDGQPVGWWTD, below -0.25. Regarding VWLCWYTAQYKVMREA, the growth estimate was -0.178. The figure for QEARERHI is below -0.25; for GRVVVRGKIRFTR it is 0.181; for SSARFRP it is below -0.25.

For the substance PNPGTGAAWSPGGHWMRAKV, the growth estimate was below -0.25.

As to WIGVESRWVGWIQHGRRARK, the growth estimate is below -0.25. The figure for GVPANGTTK is below -0.25; for TVATGRLTNMTAPMNSPVV it is below -0.25; for VSV it is below -0.25.

Take HHSPIFATDEVSRRSAILKA: the growth estimate was below -0.25. As to HIIGTMFLGAARSPQVQGHA, the growth estimate is below -0.25. For LRSPATEST the value was -0.246; for REGLRRSTELRARCPSCDSR, below -0.25; for SGDCI, below -0.25. For KQYGILRVSLYSLSTSMNST the value was -0.245; for CVDDLGSSETSRNLYAGIDQ, below -0.25. The figure for WDGTRGRTAGNWIPVLCTTA is below -0.25. TGYRLLGSL: the growth estimate is below -0.25.

In the case of VSSKLYPSQTIPICVHEYGH, the growth estimate is below -0.25. The figure for PKSRGPYNVCGVRTETQLTR is below -0.25; for AKGRKRRTQ it is below -0.25; for TFSPDQPPWAELKTYLRSRT it is below -0.25. For TMWTVYRDRIAQSGTSVAAI the value was below -0.25; for RYIVDP, below -0.25. For FDAYVLKVLGAKSSRRLRVF the value was below -0.25; for CRLFPSLKCSGRSVTARKVR, below -0.25; for GCAPETWSGFKRGGRYRWLC, below -0.25. GVVHFEHPRR: the growth estimate was below -0.25.

Regarding KARIRGGDSGRREHARESGR, the growth estimate was -0.219. Regarding ILGRSLHGR, the growth estimate is below -0.25. The figure for VVKCCLRFDWELNHGPEVPR is -0.178; for SKLAAVRSHLF it is below -0.25. The figure for TTVEGTDEVPIRNFHGH is below -0.25. For PVWL the value was below -0.25; for RRPAGKVPLQKLTKHQVSPS, below -0.25.

Take VTLLFVVVREPYNLAGV: the growth estimate was below -0.25. For WNDVLLE the value was -0.228. Consider RFQFAKLRISVWALCQSKQQ, for which the growth estimate is below -0.25. For the substance GFNTRSGPREGGGEDRPKND, the growth estimate is below -0.25. The figure for TLKLPMLRLRHSLLSGLHPV is below -0.25; for ASCIISLVRSTSGCIRWDSQ it is below -0.25; for QRPVNATPGPHSKLCSAHGA it is below -0.25. The figure for LKEIDLFNMPPVSAGYFEWA is below -0.25; for EAVRSIDNDTRGPFSR it is below -0.25; for SLLVRMVGASKRSRLE it is below -0.25.

Regarding SRRCASEH, the growth estimate is below -0.25.

SFRSSRTYSLVVFGVNAGVA: the growth estimate was below -0.25. Consider PSSSRELGPAFLAASMTGLG, for which the growth estimate was below -0.25.

Turning to GGSLVKLNCVPYCHDQPIPG, the growth estimate is below -0.25. The figure for CRPVGCIMKRGLRKQATPGQ is below -0.25; for VVGDWNEACASDRLRCSTTD it is below -0.25; for GKYQRHRRR it is below -0.25. For GLFGYMTTVRQR the value was below -0.25; for MRVGDQGYRPLLRPKNRMTS, below -0.25.

On to IGVSSKSGEL, for which the growth estimate was below -0.25. For SRENGIVALWKIQHLIQYRQ the value was below -0.25; for GVGCGQRAKSKVLYTNMKLH, below -0.25; for ARGGILCH, below -0.25.

Turning to CLGDSKEPIGRFLQRRSYDV, the growth estimate was below -0.25. As to PLFQKRRKVVRVKTSDVADA, the growth estimate was below -0.25. For AVSVAPL the value was below -0.25; for SDKNYLLADELDTSLYGVQG, below -0.25; for VRVEVMWTTYLFFRYHGAED, below -0.25.

Consider SDIRSSRSIEMCDES, for which the growth estimate was below -0.25. The figure for LENGVRKRRWARRDDGLREP is below -0.25; for GLKGWLKTVLTVGNF it is below -0.25. The figure for AKSTLYCRYVRVVYKIPPRA is below -0.25; for PMDRIREKPFHS it is below -0.25; for VLSHRRYAVESRNRFNVPHN it is below -0.25.

Turning to PRIGWLLLEWIGDG, the growth estimate was below -0.25.

Take EIPGSEADDWEGQGKSLAGN: the growth estimate is below -0.25. For SGATLSCAEILAANDKGRQH the value was below -0.25; for SPGGMLSEGIRKRACIANSG, below -0.25. For AIGQQIHNWKIVEGFSLPGL the value was below -0.25; for EPIVNNPIPLSATCKTYDAC, below -0.25; for TKRLVGLHRRVSLGFSPRFS, below -0.25. The figure for RRSKFLFLLSSTTAYALVAR is below -0.25; for EERKPAEVGEMCVHVPFL it is below -0.25. Regarding LSAHPLGQEPGL, the growth estimate is below -0.25. For AIVMPFKMYQHGATLELLQG the value was below -0.25. As to HSRNIISGVGTTLFVRRYYG, the growth estimate is below -0.25. In the case of NVGLRHYMPCYNEWMLCKGG, the growth estimate was below -0.25.

As to GTAHISARGGLIRIRFQWGG, the growth estimate was below -0.25. The figure for RPPE is below -0.25; for HRAKLQGGRHLRPECFTDLG it is below -0.25; for PREGRKGRSGFRIQSGSYDA it is below -0.25.

Consider KAMGGQGTSWKLLAMRVAQQ, for which the growth estimate is below -0.25. For RSSETLVEEKSASDFSKRMT, the growth estimate was below -0.25.

Regarding CRLRVV, the growth estimate is below -0.25.

On to SATIRVLWTTPWASSWEGGA, for which the growth estimate is below -0.25. With IRVLCWCL, the growth estimate is below -0.25. The figure for YELRALGEITVFQQ is below -0.25; for QLIQNPTAVCNMLSNYGSFF it is below -0.25. For GSFSRTDDRRRGSEEPILCC the value was below -0.25; for DSHDGGKWASAPG, below -0.25; for CGHRDMGRCTAGAVLNVEQH, below -0.25.

For the substance GFRGGHSAAGCVVS, the growth estimate was below -0.25. In the case of STPEQWEIEKIRSYSEAVST, the growth estimate is below -0.25.

Turning to IYRTYNHFSRWS, the growth estimate is below -0.25.

Turning to RALQYRVRYILAA, the growth estimate is below -0.25.

The values above are taken from the supplement of paper PMC5949888.
